From publication PMC8453168
These are yes or no findings as the source states them, for the method shown. In cells and extracts the contact can be indirect. These calls come from enrichment with a bait or labelling near it, and not all partners need be listed. Sequences can lack the tags named with a protein.

Target: T1, FLAG-HA-PTPRN (tyrosine phosphatase receptor type N), expressed in 293T cells (human) (UniProt Q16849)
T1 sequence: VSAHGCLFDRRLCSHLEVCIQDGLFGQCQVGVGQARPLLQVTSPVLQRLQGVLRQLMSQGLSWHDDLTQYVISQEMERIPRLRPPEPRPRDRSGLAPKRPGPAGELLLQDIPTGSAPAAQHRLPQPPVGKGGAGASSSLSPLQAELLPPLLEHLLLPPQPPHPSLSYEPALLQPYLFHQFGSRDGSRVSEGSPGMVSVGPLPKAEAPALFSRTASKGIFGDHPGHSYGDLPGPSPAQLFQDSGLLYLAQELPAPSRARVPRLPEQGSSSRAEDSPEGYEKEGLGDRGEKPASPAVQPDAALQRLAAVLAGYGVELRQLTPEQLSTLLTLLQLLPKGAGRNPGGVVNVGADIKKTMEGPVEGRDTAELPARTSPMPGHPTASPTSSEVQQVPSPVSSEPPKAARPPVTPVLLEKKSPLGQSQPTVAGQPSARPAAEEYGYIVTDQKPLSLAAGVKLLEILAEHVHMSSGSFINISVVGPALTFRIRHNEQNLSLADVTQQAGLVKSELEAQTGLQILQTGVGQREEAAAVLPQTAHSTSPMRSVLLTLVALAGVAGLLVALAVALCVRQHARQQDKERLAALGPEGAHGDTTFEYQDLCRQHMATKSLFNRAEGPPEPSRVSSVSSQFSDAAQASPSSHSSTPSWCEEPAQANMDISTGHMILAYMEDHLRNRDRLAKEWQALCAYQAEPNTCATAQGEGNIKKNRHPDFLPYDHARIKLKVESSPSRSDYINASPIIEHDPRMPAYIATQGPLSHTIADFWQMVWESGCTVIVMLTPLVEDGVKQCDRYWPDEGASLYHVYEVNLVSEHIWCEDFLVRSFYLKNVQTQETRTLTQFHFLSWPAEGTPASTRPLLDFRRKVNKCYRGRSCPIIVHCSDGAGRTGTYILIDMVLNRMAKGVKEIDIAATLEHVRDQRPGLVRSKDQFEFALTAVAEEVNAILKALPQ
Assay: affinity purification with mass spectrometry; anti-FLAG precipitation from lysate of FLAG-HA-PTPRN-expressing 293T cells (20 mM Tris-HCl pH 8, 137 mM NaCl, 0.5% Triton X-100, 2 mM EDTA, 4°C), agarose slurry, LC-MS/MS

binding: binds
Substance: Heat shock protein 90 alpha family class A member 1 (HSP90AA1), endogenous in 293T cells (from UniProt P07900 1-732)
